# According to the supplement of paper PMC10849652:
# Sequences of proteins named here, by UniProt entry; tags and fusion partners are left off. A change or cut given only in a name is not applied to a line headed by its entry.
# UniProt Q9Y2P4: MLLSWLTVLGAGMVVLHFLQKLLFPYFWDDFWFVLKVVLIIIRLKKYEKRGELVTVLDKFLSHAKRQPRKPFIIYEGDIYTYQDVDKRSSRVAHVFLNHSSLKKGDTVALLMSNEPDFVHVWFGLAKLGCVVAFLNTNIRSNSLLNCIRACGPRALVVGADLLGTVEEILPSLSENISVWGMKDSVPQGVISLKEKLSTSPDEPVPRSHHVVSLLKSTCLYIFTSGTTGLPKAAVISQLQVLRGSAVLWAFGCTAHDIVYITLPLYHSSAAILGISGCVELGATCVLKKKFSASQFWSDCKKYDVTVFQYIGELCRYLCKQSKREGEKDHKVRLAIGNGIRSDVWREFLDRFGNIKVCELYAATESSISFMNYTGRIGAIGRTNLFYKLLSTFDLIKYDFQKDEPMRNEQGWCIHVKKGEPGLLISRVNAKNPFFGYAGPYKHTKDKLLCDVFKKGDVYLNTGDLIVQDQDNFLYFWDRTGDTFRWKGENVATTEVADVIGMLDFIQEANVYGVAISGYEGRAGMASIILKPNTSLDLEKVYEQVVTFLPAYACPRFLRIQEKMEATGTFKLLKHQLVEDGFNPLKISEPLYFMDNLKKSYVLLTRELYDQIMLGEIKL
# UniProt Q8IVJ1: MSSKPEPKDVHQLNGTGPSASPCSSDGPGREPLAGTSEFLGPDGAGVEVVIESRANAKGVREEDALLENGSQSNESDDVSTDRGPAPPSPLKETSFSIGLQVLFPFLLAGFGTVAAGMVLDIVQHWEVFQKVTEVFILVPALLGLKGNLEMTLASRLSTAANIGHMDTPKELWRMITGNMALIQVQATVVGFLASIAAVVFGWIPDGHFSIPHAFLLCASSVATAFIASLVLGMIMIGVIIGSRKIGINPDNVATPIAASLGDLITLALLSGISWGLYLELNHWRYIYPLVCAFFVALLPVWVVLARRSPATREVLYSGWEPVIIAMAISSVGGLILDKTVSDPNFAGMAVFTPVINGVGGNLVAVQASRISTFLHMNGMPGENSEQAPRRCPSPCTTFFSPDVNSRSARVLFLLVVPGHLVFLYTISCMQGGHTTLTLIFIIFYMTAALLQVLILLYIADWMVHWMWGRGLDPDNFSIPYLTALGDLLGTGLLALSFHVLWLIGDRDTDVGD
# UniProt P78382: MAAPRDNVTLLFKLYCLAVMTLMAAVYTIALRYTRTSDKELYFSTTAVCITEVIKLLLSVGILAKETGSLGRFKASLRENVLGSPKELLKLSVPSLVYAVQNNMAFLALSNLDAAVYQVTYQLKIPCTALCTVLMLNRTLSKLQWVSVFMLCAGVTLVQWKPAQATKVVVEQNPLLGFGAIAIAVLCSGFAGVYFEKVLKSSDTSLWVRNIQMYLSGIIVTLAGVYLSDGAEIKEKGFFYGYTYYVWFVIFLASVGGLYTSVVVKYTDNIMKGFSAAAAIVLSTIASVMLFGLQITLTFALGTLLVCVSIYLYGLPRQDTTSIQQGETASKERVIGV
# UniProt Q96BD0: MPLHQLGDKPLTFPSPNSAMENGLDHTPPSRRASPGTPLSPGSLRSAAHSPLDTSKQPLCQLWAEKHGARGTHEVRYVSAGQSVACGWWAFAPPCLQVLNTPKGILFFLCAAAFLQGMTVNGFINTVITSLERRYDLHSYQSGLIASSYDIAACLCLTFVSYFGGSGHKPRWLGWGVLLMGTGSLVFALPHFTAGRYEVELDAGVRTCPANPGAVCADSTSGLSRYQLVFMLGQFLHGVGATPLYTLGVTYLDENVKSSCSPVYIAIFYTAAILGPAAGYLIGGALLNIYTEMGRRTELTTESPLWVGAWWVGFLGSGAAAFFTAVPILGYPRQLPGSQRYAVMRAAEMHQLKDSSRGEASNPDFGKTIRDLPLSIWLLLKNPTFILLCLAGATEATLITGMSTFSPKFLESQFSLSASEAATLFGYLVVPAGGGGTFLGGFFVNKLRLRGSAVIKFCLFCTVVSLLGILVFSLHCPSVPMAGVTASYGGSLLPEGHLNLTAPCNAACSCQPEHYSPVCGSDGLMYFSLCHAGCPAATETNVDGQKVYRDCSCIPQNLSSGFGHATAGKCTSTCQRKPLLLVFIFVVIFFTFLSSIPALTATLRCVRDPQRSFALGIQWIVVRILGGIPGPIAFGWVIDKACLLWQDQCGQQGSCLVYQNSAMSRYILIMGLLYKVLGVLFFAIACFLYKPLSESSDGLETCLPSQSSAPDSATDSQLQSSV
# UniProt P0C7P3: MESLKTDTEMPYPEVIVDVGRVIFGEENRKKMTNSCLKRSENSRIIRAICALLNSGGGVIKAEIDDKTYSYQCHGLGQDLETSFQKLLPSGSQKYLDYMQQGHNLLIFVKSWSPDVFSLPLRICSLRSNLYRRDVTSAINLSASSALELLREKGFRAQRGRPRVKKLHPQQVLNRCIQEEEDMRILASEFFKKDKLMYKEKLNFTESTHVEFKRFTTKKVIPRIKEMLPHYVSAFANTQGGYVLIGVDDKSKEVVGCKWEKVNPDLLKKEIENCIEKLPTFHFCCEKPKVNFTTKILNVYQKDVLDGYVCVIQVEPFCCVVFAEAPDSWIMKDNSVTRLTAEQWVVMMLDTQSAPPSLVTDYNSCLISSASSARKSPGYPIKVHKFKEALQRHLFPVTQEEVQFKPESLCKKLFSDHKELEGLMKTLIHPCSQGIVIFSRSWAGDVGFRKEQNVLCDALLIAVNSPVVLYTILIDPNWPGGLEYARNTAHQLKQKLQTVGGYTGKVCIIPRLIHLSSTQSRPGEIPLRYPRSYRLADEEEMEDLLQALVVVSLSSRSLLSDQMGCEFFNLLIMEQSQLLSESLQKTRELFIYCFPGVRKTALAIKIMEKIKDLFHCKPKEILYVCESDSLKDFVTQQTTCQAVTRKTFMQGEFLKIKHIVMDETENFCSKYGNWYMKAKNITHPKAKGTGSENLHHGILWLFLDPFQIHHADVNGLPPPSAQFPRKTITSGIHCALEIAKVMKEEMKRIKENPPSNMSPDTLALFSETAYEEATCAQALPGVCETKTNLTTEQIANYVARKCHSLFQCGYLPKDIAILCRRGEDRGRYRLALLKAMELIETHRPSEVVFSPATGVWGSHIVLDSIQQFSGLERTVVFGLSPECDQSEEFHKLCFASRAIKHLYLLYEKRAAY
# UniProt Q99717: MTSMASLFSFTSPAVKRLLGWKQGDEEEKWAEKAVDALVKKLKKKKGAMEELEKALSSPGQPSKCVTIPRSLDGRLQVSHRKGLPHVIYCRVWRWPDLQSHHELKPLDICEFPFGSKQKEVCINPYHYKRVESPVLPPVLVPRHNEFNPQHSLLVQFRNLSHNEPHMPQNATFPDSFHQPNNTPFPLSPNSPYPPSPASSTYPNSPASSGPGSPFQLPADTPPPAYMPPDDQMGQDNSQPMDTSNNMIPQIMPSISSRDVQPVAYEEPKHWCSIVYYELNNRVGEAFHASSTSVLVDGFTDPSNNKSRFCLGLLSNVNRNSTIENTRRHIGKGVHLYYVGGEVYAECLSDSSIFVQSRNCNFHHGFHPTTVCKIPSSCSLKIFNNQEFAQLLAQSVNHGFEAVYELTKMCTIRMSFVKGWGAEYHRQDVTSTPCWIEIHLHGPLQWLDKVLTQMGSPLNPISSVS
# UniProt Q96QE2: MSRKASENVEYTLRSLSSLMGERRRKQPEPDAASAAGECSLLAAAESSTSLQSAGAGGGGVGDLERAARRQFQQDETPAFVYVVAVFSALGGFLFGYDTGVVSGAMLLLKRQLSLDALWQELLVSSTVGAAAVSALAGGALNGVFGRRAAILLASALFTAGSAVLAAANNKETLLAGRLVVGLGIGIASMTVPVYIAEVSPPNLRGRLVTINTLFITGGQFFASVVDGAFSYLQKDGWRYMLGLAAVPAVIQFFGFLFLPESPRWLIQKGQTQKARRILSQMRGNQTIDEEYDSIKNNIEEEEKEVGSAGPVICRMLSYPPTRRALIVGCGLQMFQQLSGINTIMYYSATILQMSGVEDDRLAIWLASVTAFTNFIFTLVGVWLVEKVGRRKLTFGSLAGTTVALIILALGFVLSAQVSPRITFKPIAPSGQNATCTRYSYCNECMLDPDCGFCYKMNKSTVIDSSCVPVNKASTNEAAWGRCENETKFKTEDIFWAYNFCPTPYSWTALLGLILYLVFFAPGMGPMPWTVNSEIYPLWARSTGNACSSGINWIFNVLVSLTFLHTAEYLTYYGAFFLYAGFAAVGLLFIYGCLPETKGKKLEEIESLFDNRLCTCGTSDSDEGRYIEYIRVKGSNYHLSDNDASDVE
# UniProt P84022, whole entry, looked up: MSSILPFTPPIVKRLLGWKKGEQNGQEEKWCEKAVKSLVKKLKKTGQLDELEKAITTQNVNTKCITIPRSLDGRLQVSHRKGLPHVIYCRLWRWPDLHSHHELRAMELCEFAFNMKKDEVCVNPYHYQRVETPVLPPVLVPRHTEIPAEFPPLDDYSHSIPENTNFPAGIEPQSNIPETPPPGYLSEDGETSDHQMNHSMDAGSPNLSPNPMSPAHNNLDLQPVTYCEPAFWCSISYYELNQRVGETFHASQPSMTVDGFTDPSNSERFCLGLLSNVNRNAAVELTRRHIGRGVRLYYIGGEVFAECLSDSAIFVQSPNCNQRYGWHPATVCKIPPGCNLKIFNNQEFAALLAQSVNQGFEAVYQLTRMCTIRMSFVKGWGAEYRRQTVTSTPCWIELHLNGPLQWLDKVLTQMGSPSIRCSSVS
# UniProt Q8IZM9: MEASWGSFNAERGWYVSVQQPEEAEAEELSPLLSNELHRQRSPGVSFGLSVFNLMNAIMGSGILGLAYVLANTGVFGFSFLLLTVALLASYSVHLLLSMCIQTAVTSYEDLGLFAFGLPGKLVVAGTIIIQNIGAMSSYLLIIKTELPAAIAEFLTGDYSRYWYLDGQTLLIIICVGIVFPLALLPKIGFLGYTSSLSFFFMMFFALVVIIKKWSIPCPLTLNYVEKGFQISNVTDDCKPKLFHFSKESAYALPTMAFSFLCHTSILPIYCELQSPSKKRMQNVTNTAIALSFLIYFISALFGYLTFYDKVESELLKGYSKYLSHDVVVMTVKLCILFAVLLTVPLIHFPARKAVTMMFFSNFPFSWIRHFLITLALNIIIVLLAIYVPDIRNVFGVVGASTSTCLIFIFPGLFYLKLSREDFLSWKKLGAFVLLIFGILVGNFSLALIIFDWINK
# UniProt Q0VAQ4: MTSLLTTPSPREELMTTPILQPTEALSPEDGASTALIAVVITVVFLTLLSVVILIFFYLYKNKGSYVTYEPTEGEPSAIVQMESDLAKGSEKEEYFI
# UniProt Q9BV35: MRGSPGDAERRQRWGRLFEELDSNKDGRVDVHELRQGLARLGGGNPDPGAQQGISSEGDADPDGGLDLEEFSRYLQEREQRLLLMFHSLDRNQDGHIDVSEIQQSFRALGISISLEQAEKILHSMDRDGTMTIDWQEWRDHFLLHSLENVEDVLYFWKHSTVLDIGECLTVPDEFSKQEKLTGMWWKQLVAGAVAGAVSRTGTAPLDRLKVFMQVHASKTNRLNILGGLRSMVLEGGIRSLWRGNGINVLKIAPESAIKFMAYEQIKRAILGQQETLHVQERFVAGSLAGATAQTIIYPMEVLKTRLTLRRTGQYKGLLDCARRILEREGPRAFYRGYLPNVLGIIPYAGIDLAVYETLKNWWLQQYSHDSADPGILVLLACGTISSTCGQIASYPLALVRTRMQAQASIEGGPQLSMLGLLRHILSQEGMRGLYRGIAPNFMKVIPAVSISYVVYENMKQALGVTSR
# UniProt Q3KQZ1: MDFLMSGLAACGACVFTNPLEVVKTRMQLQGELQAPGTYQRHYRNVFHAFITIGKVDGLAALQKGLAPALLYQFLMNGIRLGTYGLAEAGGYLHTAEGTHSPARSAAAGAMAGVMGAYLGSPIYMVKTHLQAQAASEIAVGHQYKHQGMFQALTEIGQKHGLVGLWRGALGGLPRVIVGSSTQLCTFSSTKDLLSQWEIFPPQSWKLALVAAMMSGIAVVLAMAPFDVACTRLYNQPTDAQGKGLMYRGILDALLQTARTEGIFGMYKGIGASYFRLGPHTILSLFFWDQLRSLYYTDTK
# UniProt Q96H72: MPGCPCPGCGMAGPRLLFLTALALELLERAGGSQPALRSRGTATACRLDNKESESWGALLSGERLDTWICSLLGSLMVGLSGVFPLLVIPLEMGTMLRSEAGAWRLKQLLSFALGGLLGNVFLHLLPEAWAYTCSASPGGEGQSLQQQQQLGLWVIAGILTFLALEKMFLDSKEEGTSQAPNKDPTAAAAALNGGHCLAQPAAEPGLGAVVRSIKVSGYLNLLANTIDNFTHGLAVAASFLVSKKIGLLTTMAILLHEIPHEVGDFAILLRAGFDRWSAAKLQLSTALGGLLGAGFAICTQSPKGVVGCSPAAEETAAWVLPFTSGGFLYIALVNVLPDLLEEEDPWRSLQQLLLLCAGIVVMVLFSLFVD
# This is one part of the list.
# Assays:
# Assay in all cases: log2 fold change, soluble protein after heating vs DMSO (PISA); higher = thermal stabilisation; K562 lysate, 10 uM; active = over 0.2 and 3.5 SD of the protein, either way, in both replicates (recomputed)
# [1] = compound: CC(=O)c1cnc2ccc(-c3cc(Cl)c(O)c(Cl)c3)nc2c1N[C@H]1CC[C@H](CN(C)C)CC1
# How it was run: (§1)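 To prepare the extract, K562 pellets were dounce-homogenised in PBS pH 7.4 with 1 mM MgCl2, giving crude material at 1 mg/mL protein. This was treated with 10 μM compound for 30 min, then heated in aliquots for 3 min over 48°C-58°C before pooling and addition of NP-40 to 0.5% at 4°C. Centrifugation at 21,000xg for 90 min left soluble protein in the supernatant, which TMTpro 16plex LC-MS/MS quantified with equalised channel sums. Results are log-two fold changes in thermal stability compared with solvent controls, from duplicates.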
# ralimetinib = compound: CC(C)(C)Cn1c(N)nc2ccc(-c3[nH]c(C(C)(C)C)nc3-c3ccc(F)cc3)nc21 [ralimetinib]
# How it was run: as §1
# [2] = compound: CC(C)(O)CC(=O)NCCn1ccc2ncnc(Nc3ccc(Oc4cccc(C(F)(F)F)c4)c(Cl)c3)c21
# How it was run: as §1
# [3] = compound: CC(C)C1=C2N=C(C=C(N2N=C1)NCC3=CC=CC=C3)NCCCCCCN
# How it was run: as §1
# [4] = compound: CC1=C(C2=C(C=C1)C(=O)C3=CC=CC=C3N2CCCN)C
# How it was run: as §1
# [5] = compound: CC1=C(C=C(C=C1)NC(=O)C2=CC(=CC=C2)C(C)(C)C#N)NC3=CC4=C(C=C3)N=CN(C4=O)C
# How it was run: as §1
# [6] = compound: CC1=C(C=C(C=C1)NC(=O)C2=CC(=CC=C2)N(C)C)NC(=O)C3=CC=C(C=C3)O
# How it was run: as §1
# [7] = compound: CC1=CC=C(C=C1)SC2=C3C=C(SC3=CN=C2)C(=O)N
# How it was run: as §1
# [8] = compound: CCCS(=O)(=O)Nc1ccc(F)c(C(=O)c2c[nH]c3ncc(Cl)cc23)c1F
# How it was run: as §1
# [9] = compound: CC[C@@H]1C(=O)N(C)c2cnc(Nc3ccc(C(=O)NC4CCN(C)CC4)cc3OC)nc2N1C1CCCC1
# How it was run: as §1
# volasertib = compound: CC[C@@H]1C(=O)N(C)c2cnc(Nc3ccc(C(=O)N[C@H]4CC[C@H](N5CCN(CC6CC6)CC5)CC4)cc3OC)nc2N1C(C)C [volasertib]
# How it was run: as §1
# [10] = compound: CCn1c(C(=O)N(C2CC2)C2CC2)cc2c3c(ncn3C)c(Nc3cc(C)n(C)n3)nc21
# How it was run: as §1
# [11] = compound: CCn1cc(-c2ccnc3[nH]c(-c4cccc(CN(C)C)c4)cc23)c(-c2ccc(NC(=O)N(C)C)cc2)n1
# How it was run: as §1
# [12] = compound: CN1CCC(CNc2ccc3ncc(-c4cccc(OC(F)(F)F)c4)n3n2)CC1
# How it was run: as §1
# saracatinib = compound: CN1CCN(CCOc2cc(OC3CCOCC3)c3c(Nc4c(Cl)ccc5c4OCO5)ncnc3c2)CC1 [saracatinib]
# How it was run: as §1
# sotrastaurin = compound: CN1CCN(c2nc(C3=C(c4c[nH]c5ccccc45)C(=O)NC3=O)c3ccccc3n2)CC1 [sotrastaurin]
# How it was run: as §1
# [13] = compound: CC1=C(C(CC(=O)N1)C2=CC=C(C=C2)C(F)(F)F)C(=O)NC3=C(C=C4C(=C3)C=NN4)F
# How it was run: as §1
# ibrutinib = compound: C=CC(=O)N1CCC[C@@H](n2nc(-c3ccc(Oc4ccccc4)cc3)c3c(N)ncnc32)C1 [ibrutinib]
# How it was run: as §1
# vemurafenib = compound: CCCS(=O)(=O)Nc1ccc(F)c(C(=O)c2c[nH]c3ncc(-c4ccc(Cl)cc4)cc23)c1F [vemurafenib]
# How it was run: as §1
# barasertib = compound: CCN(CCCOc1ccc2c(Nc3cc(CC(=O)Nc4cccc(F)c4)[nH]n3)ncnc2c1)CCOP(=O)(O)O [barasertib]
# How it was run: as §1
target,measurement,setting,value
SLC23A2 (UniProt Q9UGH3),log2 fold change,[1],inactive: 0.12
same,log2 fold change,ralimetinib,inactive: 0.023
same,log2 fold change,[2],inactive: -0.117
same,log2 fold change,[3],inactive: -0.039
same,log2 fold change,[4],inactive: 0.002
same,log2 fold change,[5],inactive: 0.037
same,log2 fold change,[6],inactive: -0.004
same,log2 fold change,[7],inactive: 0.142
same,log2 fold change,[8],inactive: -0.122
same,log2 fold change,[9],inactive: 0.135
same,log2 fold change,volasertib,inactive: -0.213
same,log2 fold change,[10],inactive: -0.094
same,log2 fold change,[11],inactive: -0.352
same,log2 fold change,[12],inactive: 0.241
same,log2 fold change,saracatinib,inactive: 0.072
same,log2 fold change,sotrastaurin,inactive: 0.036
SLC27A6 (UniProt Q9Y2P4),log2 fold change,[3],inactive: 0.159
SLC41A1 (UniProt Q8IVJ1),log2 fold change,[1],inactive: 0.007
same,log2 fold change,ralimetinib,inactive: -0.003
same,log2 fold change,[2],inactive: 0.112
same,log2 fold change,[3],inactive: -0.037
same,log2 fold change,[13],inactive: -0.023
same,log2 fold change,[5],inactive: -0.081
same,log2 fold change,[6],inactive: 0.09
same,log2 fold change,[7],inactive: 0.041
same,log2 fold change,[8],inactive: 0.021
same,log2 fold change,[9],inactive: 0.085
same,log2 fold change,volasertib,inactive: -0.084
same,log2 fold change,[10],inactive: 0.035
same,log2 fold change,[11],inactive: 0.083
same,log2 fold change,[12],inactive: 0.06
same,log2 fold change,sotrastaurin,inactive: 0.082
SLC9B2 (UniProt Q86UD5),log2 fold change,[1],inactive: -0.029
same,log2 fold change,ralimetinib,inactive: -0.16
same,log2 fold change,[2],inactive: -0.176
same,log2 fold change,[5],inactive: -0.167
same,log2 fold change,[6],inactive: 0.034
same,log2 fold change,[7],inactive: -0.036
same,log2 fold change,[8],inactive: -0.05
same,log2 fold change,volasertib,inactive: -0.091
same,log2 fold change,[10],inactive: 0.065
same,log2 fold change,sotrastaurin,inactive: 0.06
SLC35A1 (UniProt P78382),log2 fold change,ibrutinib,inactive: 0.061
same,log2 fold change,[3],inactive: 0.117
same,log2 fold change,[13],inactive: -0.022
same,log2 fold change,[5],inactive: 0.142
same,log2 fold change,vemurafenib,inactive: 0.038
same,log2 fold change,barasertib,inactive: 0.085
same,log2 fold change,[11],inactive: -0.099
same,log2 fold change,[12],inactive: 0.066
same,log2 fold change,sotrastaurin,inactive: 0.131
SLCO4A1 (UniProt Q96BD0),log2 fold change,ibrutinib,inactive: 0.081
same,log2 fold change,[13],inactive: 0.115
same,log2 fold change,barasertib,inactive: 0.037
same,log2 fold change,[11],inactive: -0.015
same,log2 fold change,[12],inactive: 0.042
SLFN14 (UniProt P0C7P3),log2 fold change,ibrutinib,inactive: -0.119
same,log2 fold change,[5],inactive: -0.017
same,log2 fold change,vemurafenib,inactive: -0.139
same,log2 fold change,barasertib,inactive: 0.001
same,log2 fold change,[9],inactive: 0.011
same,log2 fold change,[11],inactive: 0.059
same,log2 fold change,[12],inactive: -0.019
same,log2 fold change,sotrastaurin,inactive: -0.014
SMAD5 (UniProt Q99717),log2 fold change,ibrutinib,inactive: 0.084
same,log2 fold change,[3],inactive: -0.025
same,log2 fold change,[13],inactive: 0.189
same,log2 fold change,[4],inactive: 0.036
same,log2 fold change,[5],inactive: 0.105
same,log2 fold change,vemurafenib,inactive: 0.035
same,log2 fold change,barasertib,inactive: 1.42
same,log2 fold change,[9],inactive: 0.258
same,log2 fold change,[11],inactive: -0.194
same,log2 fold change,[12],inactive: 0.086
same,log2 fold change,saracatinib,inactive: 0.081
same,log2 fold change,sotrastaurin,inactive: 0.002
SLC2A13 (UniProt Q96QE2),log2 fold change,[3],inactive: 0.046
same,log2 fold change,[4],inactive: -0.01
same,log2 fold change,[9],inactive: 0.019
same,log2 fold change,[11],inactive: 0.078
same,log2 fold change,[12],inactive: 0.006
same,log2 fold change,saracatinib,inactive: 0.012
SLC46A1 (UniProt Q96NT5),log2 fold change,[1],inactive: 0.103
same,log2 fold change,[3],inactive: -0.03
same,log2 fold change,[4],inactive: -0.144
same,log2 fold change,[7],inactive: -0.065
same,log2 fold change,[8],inactive: -0.017
same,log2 fold change,volasertib,inactive: 0.006
same,log2 fold change,[11],inactive: -0.174
same,log2 fold change,[12],inactive: 0.027
same,log2 fold change,saracatinib,inactive: -0.031
SMAD3 (UniProt P84022),log2 fold change,[1],inactive: 0.018
same,log2 fold change,ralimetinib,inactive: -0.055
same,log2 fold change,[2],inactive: -0.007
same,log2 fold change,[13],inactive: -0.018
same,log2 fold change,[4],inactive: 0.007
same,log2 fold change,[5],inactive: 0.024
same,log2 fold change,[6],inactive: -0.005
same,log2 fold change,[7],inactive: 0.012
same,log2 fold change,[8],inactive: -0.083
same,log2 fold change,volasertib,inactive: -0.023
same,log2 fold change,[10],inactive: 0.039
same,log2 fold change,saracatinib,inactive: 0.015
same,log2 fold change,sotrastaurin,inactive: 0.011
SLC38A6 isoform 2 (UniProt Q8IZM9),log2 fold change,[3],inactive: -0.09
same,log2 fold change,vemurafenib,inactive: -0.021
SMAGP (UniProt Q0VAQ4),log2 fold change,[1],inactive: -0.095
same,log2 fold change,ralimetinib,inactive: 0.092
same,log2 fold change,[2],inactive: 0.037
same,log2 fold change,[3],inactive: 0
same,log2 fold change,[13],inactive: 0.043
same,log2 fold change,[4],inactive: 0.107
same,log2 fold change,[5],inactive: 0.065
same,log2 fold change,[6],inactive: 0.045
same,log2 fold change,[7],inactive: 0.113
same,log2 fold change,[8],inactive: -0.059
same,log2 fold change,[9],inactive: -0.151
same,log2 fold change,volasertib,inactive: 0.062
same,log2 fold change,[10],inactive: -0.029
same,log2 fold change,[11],inactive: -0.129
same,log2 fold change,[12],inactive: -0.029
same,log2 fold change,saracatinib,inactive: 0.098
same,log2 fold change,sotrastaurin,inactive: 0.017
SLC25A23 isoform 3 (UniProt Q9BV35),log2 fold change,[1],inactive: 0.069
same,log2 fold change,ralimetinib,inactive: -0.041
same,log2 fold change,[2],inactive: -0.014
same,log2 fold change,[3],inactive: -0.063
same,log2 fold change,[4],inactive: -0.041
same,log2 fold change,[5],inactive: -0.087
same,log2 fold change,[6],inactive: -0.073
same,log2 fold change,[7],inactive: -0.249
same,log2 fold change,[8],inactive: 0.03
same,log2 fold change,volasertib,inactive: 0.02
same,log2 fold change,[10],inactive: -0.078
same,log2 fold change,[11],inactive: -0.087
same,log2 fold change,[12],inactive: 0.172
same,log2 fold change,saracatinib,inactive: -0.131
same,log2 fold change,sotrastaurin,inactive: -0.046
SLC39A6 (UniProt Q13433),log2 fold change,[1],inactive: 0.011
same,log2 fold change,ralimetinib,inactive: -0.021
same,log2 fold change,[2],inactive: -0.073
same,log2 fold change,[3],inactive: 0.011
same,log2 fold change,[13],inactive: -0.018
same,log2 fold change,[5],inactive: -0.022
same,log2 fold change,[6],inactive: -0.026
same,log2 fold change,[7],inactive: -0.037
same,log2 fold change,[8],inactive: 0.039
same,log2 fold change,volasertib,inactive: -0.015
same,log2 fold change,[10],inactive: 0.005
same,log2 fold change,[11],inactive: 0.221
same,log2 fold change,[12],inactive: 0.019
same,log2 fold change,sotrastaurin,inactive: -0.031
SLC25A35 (UniProt Q3KQZ1),log2 fold change,[5],inactive: 0.051
same,log2 fold change,[9],inactive: 0.163
same,log2 fold change,[11],inactive: -0.112
same,log2 fold change,[12],inactive: 0.045
same,log2 fold change,sotrastaurin,inactive: -0.044
SLC35A3 isoform 2 (UniProt Q9Y2D2),log2 fold change,[1],inactive: -0.034
same,log2 fold change,ralimetinib,inactive: -0.027
same,log2 fold change,[2],inactive: 0.234
same,log2 fold change,[3],inactive: -0.027
same,log2 fold change,[13],inactive: -0.133
same,log2 fold change,[5],inactive: 0.111
same,log2 fold change,[6],inactive: -0.025
same,log2 fold change,[7],inactive: 0.051
same,log2 fold change,vemurafenib,inactive: -0.024
same,log2 fold change,[8],inactive: -0.031
same,log2 fold change,[9],inactive: 0.056
same,log2 fold change,volasertib,inactive: 0.005
same,log2 fold change,[10],inactive: -0.374
same,log2 fold change,[11],active: -1.1
same,log2 fold change,[12],inactive: 0.336
same,log2 fold change,sotrastaurin,inactive: -0.026
SLC39A13 (UniProt Q96H72),log2 fold change,ralimetinib,inactive: 0.004
same,log2 fold change,[2],inactive: -0.137
same,log2 fold change,[3],inactive: -0.003
same,log2 fold change,[6],inactive: 0.25
same,log2 fold change,[10],inactive: 0.035

# 6 consecutive records from above:
target,measurement,setting,value
SLC35A1 (UniProt P78382),log2 fold change,[11],inactive: -0.099
same,log2 fold change,[12],inactive: 0.066
same,log2 fold change,sotrastaurin,inactive: 0.131
SLCO4A1 (UniProt Q96BD0),log2 fold change,ibrutinib,inactive: 0.081
same,log2 fold change,[13],inactive: 0.115
same,log2 fold change,barasertib,inactive: 0.037

# Laid out differently: results already given.
target	measurement	setting	value
SLC41A1 (UniProt Q8IVJ1)	log2 fold change	[13]	inactive: -0.023
SMAD5 (UniProt Q99717)	log2 fold change	[5]	inactive: 0.105
SMAGP (UniProt Q0VAQ4)	log2 fold change	[7]	inactive: 0.113
SLC39A6 (UniProt Q13433)	log2 fold change	[11]	inactive: 0.221
same	log2 fold change	sotrastaurin	inactive: -0.031
